Variants at the background level are over-represented here.
Experiments:
biotinyl-Trp-oxazolone = test: self-aminoacylation, catalytic enhancement (BWO) (fold over background); higher = more active; k-Seq, kA / k0A0; sequences stand for … in GGGAAUGGAUCCACAUCUACGAAUUC…UUCACUGCAGACUUGACGAAGCUG
In short: (§1)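 Each biotinyl-aminoacyl-oxazolone, at 2–1250 μM, was incubated with mutagenized RNA pools (0.43 μM) carrying a 21-nt variable region. The 50 μL reactions contained HEPES/NaCl/KCl/MgCl2/CaCl2 buffer with 5% acetonitrile at pH 6.9–7.0 and ran for 90 minutes at room temperature. After streptavidin capture, RNA was measured by qPCR in triplicate and by Illumina sequencing, and catalytic enhancement was calculated as median kA over the uncatalyzed rate from a pseudo-first-order fit of per-sequence fraction reacted.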

biotinyl-Leu-oxazolone = test: self-aminoacylation, catalytic enhancement (BLO) (fold over background); higher = more active; k-Seq, kA / k0A0; sequences stand for … in GGGAAUGGAUCCACAUCUACGAAUUC…UUCACUGCAGACUUGACGAAGCUG
In short: as §1

biotinyl-Val-oxazolone = test: self-aminoacylation, catalytic enhancement (BVO) (fold over background); higher = more active; k-Seq, kA / k0A0; sequences stand for … in GGGAAUGGAUCCACAUCUACGAAUUC…UUCACUGCAGACUUGACGAAGCUG
In short: as §1

biotinyl-Ile-oxazolone = test: self-aminoacylation, catalytic enhancement (BIO) (fold over background); higher = more active; k-Seq, kA / k0A0; sequences stand for … in GGGAAUGGAUCCACAUCUACGAAUUC…UUCACUGCAGACUUGACGAAGCUG
In short: as §1

biotinyl-Met-oxazolone = test: self-aminoacylation, catalytic enhancement (BMO) (fold over background); higher = more active; k-Seq, kA / k0A0; sequences stand for … in GGGAAUGGAUCCACAUCUACGAAUUC…UUCACUGCAGACUUGACGAAGCUG
In short: as §1

biotinyl-Phe-oxazolone = test: self-aminoacylation, catalytic enhancement (BFO) (fold over background); higher = more active; k-Seq, kA / k0A0; sequences stand for … in GGGAAUGGAUCCACAUCUACGAAUUC…UUCACUGCAGACUUGACGAAGCUG
In short: as §1

Row | Sequence | self-aminoacylation (biotinyl-Trp-oxazolone) | self-aminoacylation (biotinyl-Leu-oxazolone) | self-aminoacylation (biotinyl-Val-oxazolone) | self-aminoacylation (biotinyl-Ile-oxazolone) | self-aminoacylation (biotinyl-Met-oxazolone) | self-aminoacylation (biotinyl-Phe-oxazolone)
1 | CUACUUCUAACAAUCGGGCUG [Fam1A.1 aminoacylation ribozyme variant] | 0.88 | 0.85 | 1.23 | 0.945 | 1.05 | 0.537
2 | CUACUUCUAGCAAUCGGUCUG [Fam1A.1 aminoacylation ribozyme variant] | 0.542 | 0.759 | 0.677 | 0.759 | 0.753 | 0.603
3 | CUACUUCUCACAAUCGGUCUG [Fam1A.1 aminoacylation ribozyme variant] | 0.711 | 0.665 | 0.711 | 0.69 | 0.563 | 0.575
4 | CUACUUGAAACAAUCGGUCUA [Fam1A.1 aminoacylation ribozyme variant] | 0.787 | 0.784 | 0.726 | 0.845 | 0.822 | 0.803
5 | CUACUUUAAACAAUCGGUCUA [Fam1A.1 aminoacylation ribozyme variant] | 0.713 | 0.763 | 0.781 | 0.832 | 1.09 | 1.15
6 | CUACUUUAAACAAUCGUUCUG [Fam1A.1 aminoacylation ribozyme variant] | 0.469 | 0.612 | 0.698 | 0.644 | 0.571 | 0.59
7 | CUACUUUAAACAAUGGGUCUG [Fam1A.1 aminoacylation ribozyme variant] | 1.22 | 1.05 | 0.966 | 1.18 | 1.27 | 0.872
8 | CUAGGUCAAACAAUCGGUCUG [Fam1A.1 aminoacylation ribozyme variant] | 1.16 | 0.786 | 0.865 | 1.01 | 0.966 | 1.3
9 | CUAGUUCAAACAAUCUGUCUG [Fam1A.1 aminoacylation ribozyme variant] | 0.812 | 0.79 | 0.733 | 0.866 | 0.702 | 0.903
10 | CUAGUUCAAACUAUCGGUCUG [Fam1A.1 aminoacylation ribozyme variant] | 1.16 | 1.21 | 1.04 | 1.25 | 1.25 | 1.05
11 | CUAGUUCAUACAAUCGGUCUG [Fam1A.1 aminoacylation ribozyme variant] | 0.672 | 0.812 | 0.823 | 0.83 | 0.847 | 0.871
12 | CUAGUUCGAACAAUCGGUCUG [Fam1A.1 aminoacylation ribozyme variant] | 0.761 | 0.939 | 0.715 | 0.938 | 0.892 | 1.06
13 | CUAUUUCAAACAAUCUGUCUG [Fam1A.1 aminoacylation ribozyme variant] | 0.623 | 0.653 | 0.804 | 0.786 | 0.638 | 1.3
14 | CUCCUUCAGACAAUCGGUCUG [Fam1A.1 aminoacylation ribozyme variant] | 0.922 | 1.23 | 1.11 | 0.994 | 1.07 | 1.02
15 | CUCCUUCCAACAAUCGGUCUG [Fam1A.1 aminoacylation ribozyme variant] | 1.31 | 0.948 | 0.876 | 1.03 | 0.84 | 1.43
16 | CUCCUUCUAACAAUCGGUCUG [Fam1A.1 aminoacylation ribozyme variant] | 0.718 | 0.508 | 0.651 | 0.634 | 0.541 | 0.914
17 | CUGCUUAAAACAAUCGGUCUG [Fam1A.1 aminoacylation ribozyme variant] | 0.982 | 0.92 | 0.874 | 0.822 | 0.878 | 0.878
18 | CUGCUUCAAACAAACGGUCUG [Fam1A.1 aminoacylation ribozyme variant] | 0.373 | 0.566 | 0.709 | 0.647 | 0.695 | 0.645
19 | CUGCUUCAAACAAUCGGUCUC [Fam1A.1 aminoacylation ribozyme variant] | 46 | 2.47 | 1.38 | 1.29 | 1.64 | 107
20 | CUGCUUCGAACAAUCGGUCUG [Fam1A.1 aminoacylation ribozyme variant] | 0.843 | 0.787 | 0.77 | 0.727 | 0.779 | 1.36
21 | CUGCUUCUAACAAUCGGUCUG [Fam1A.1 aminoacylation ribozyme variant] | 0.445 | 0.546 | 0.626 | 0.691 | 0.571 | 0.632
22 | CUUACCCUGGUCAUCGAGAGA [Fam2.1 aminoacylation ribozyme variant] | 0.64 | 0.977 | 1.07 | 0.88 | 0.854 | 0.65
23 | CUUACCCUGUUCAUCGAGUGA [Fam2.1 aminoacylation ribozyme variant] | 6.94 | 4.33 | 2.86 | 2.29 | 4.32 | 7.83
24 | CUUCACCUAGGUCAUAGGGUG [Fam2.2 aminoacylation ribozyme variant] | 1.79 | 1.6 | 1.29 | 1.35 | 1.39 | 1.66
25 | CUUCACCUAGGUCAUCGGGUG [Fam2.2 aminoacylation ribozyme variant] | 6.65 | 9 | 5.18 | 4.63 | 7.51 | 34.6
26 | CUUCUUCAAACAAUGGGUCUG [Fam1A.1 aminoacylation ribozyme variant] | 0.646 | 0.979 | 1.01 | 1.16 | 1.01 | 1.02

Row | Sequence | self-aminoacylation (biotinyl-Trp-oxazolone) | self-aminoacylation (biotinyl-Leu-oxazolone) | self-aminoacylation (biotinyl-Val-oxazolone) | self-aminoacylation (biotinyl-Ile-oxazolone) | self-aminoacylation (biotinyl-Met-oxazolone) | self-aminoacylation (biotinyl-Phe-oxazolone)
27 | CUUCUUCAAACGAUCGGUCUG [Fam1A.1 aminoacylation ribozyme variant] | 0.947 | 0.915 | 0.784 | 0.71 | 0.858 | 1.02
28 | GAGCUUGCUAAUAGUCGCAAG [Fam3.1 aminoacylation ribozyme variant] | 2.4 | 1.56 | 2.02 | 1.93 | 2.03 | 4.81
29 | GAGUUUGAUAAUAGUCGCAAG [Fam3.1 aminoacylation ribozyme variant] | 1.9 | 1.08 | 1.42 | 1.55 | 1.28 | 1.88
30 | GAGUUUGCUAAUAGGCGCAAG [Fam3.1 aminoacylation ribozyme variant] | 1.35 | 1.02 | 0.836 | 0.982 | 0.961 | 1.4
31 | GAGUUUGCUAAUAGUGGCAAG [Fam3.1 aminoacylation ribozyme variant] | 1 | 0.652 | 0.738 | 0.929 | 0.767 | 0.97
32 | GCACACUUCAAGCAAUCGAUC [Fam1B.1 aminoacylation ribozyme variant] | 0.861 | 0.669 | 0.907 | 0.744 | 0.715 | 1.43
33 | GUACUUCAAACACUCGGUCUG [Fam1A.1 aminoacylation ribozyme variant] | 1.91 | 1.64 | 1.3 | 1.5 | 1.31 | 5.9
34 | GUACUUCAGACAAUCGGUCUG [Fam1A.1 aminoacylation ribozyme variant] | 1.56 | 1.32 | 1.06 | 1.22 | 1.2 | 4.98
35 | GUACUUCAUACAAUCGGUCUG [Fam1A.1 aminoacylation ribozyme variant] | 1.4 | 1.25 | 1.13 | 1.4 | 1.17 | 1.96
36 | GUACUUCCAACAAUCGGUCUG [Fam1A.1 aminoacylation ribozyme variant] | 1.33 | 1.25 | 1.2 | 1.3 | 1.07 | 2
37 | GUUCACCUAGGUCAGCGGGUG [Fam2.2 aminoacylation ribozyme variant] | 4.42 | 4.21 | 3.23 | 2.92 | 4.02 | 26.1
38 | GUUCACCUAGGUCAUCGGGUC [Fam2.2 aminoacylation ribozyme variant] | 0.681 | 1.36 | 1.34 | 1.28 | 1.03 | 1.16
39 | UAGUUUGCUAAUAGGCGCAAG [Fam3.1 aminoacylation ribozyme variant] | 0.869 | 0.854 | 0.979 | 1.17 | 0.882 | 1.38
40 | UAGUUUGCUAAUAGUAGCAAG [Fam3.1 aminoacylation ribozyme variant] | 1.02 | 0.846 | 1.1 | 1.12 | 1.12 | 1.53
41 | UAGUUUGCUAAUAGUCGCACG [Fam3.1 aminoacylation ribozyme variant] | 1.57 | 1.42 | 1.04 | 1.13 | 0.875 | 1.57
42 | UAGUUUGCUAAUAGUCGGAAG [Fam3.1 aminoacylation ribozyme variant] | 2.37 | 0.963 | 1.22 | 1.01 | 1.13 | 6.04
43 | UAGUUUGCUAAUAGUUGCAAG [Fam3.1 aminoacylation ribozyme variant] | 1.3 | 1.27 | 1.04 | 1.3 | 1.33 | 1.87
44 | UAGUUUGCUAUUAGUCGCAAG [Fam3.1 aminoacylation ribozyme variant] | 1.55 | 1.18 | 1.32 | 1.4 | 1 | 1.69
45 | UCACACAUCAAGCAAUCGGUC [Fam1B.1 aminoacylation ribozyme variant] | 0.855 | 0.72 | 0.999 | 0.82 | 0.821 | 1.33
46 | UCACACUACAAGCAAUCGGUC [Fam1B.1 aminoacylation ribozyme variant] | 0.924 | 0.846 | 0.883 | 0.867 | 0.685 | 1.22
47 | UCACACUGCAAGCAAUCGGUC [Fam1B.1 aminoacylation ribozyme variant] | 0.709 | 0.979 | 1.21 | 1.13 | 0.998 | 1.26
48 | UCACACUUCAGGCAAUCGGUC [Fam1B.1 aminoacylation ribozyme variant] | 1.34 | 1.32 | 1.39 | 1.31 | 1.36 | 1.39
49 | UUACUUAAAACAAUCGGUCUG [Fam1A.1 aminoacylation ribozyme variant] | 1.02 | 1.06 | 0.963 | 1.09 | 1.24 | 1.33
50 | UUUCACCUAGGUCAUCGGAUG [Fam2.2 aminoacylation ribozyme variant] | 1.12 | 0.998 | 1.36 | 1.1 | 0.898 | 0.842
51 | UUUCACCUAGGUCAUCGGGAG [Fam2.2 aminoacylation ribozyme variant] | 2.02 | 1.82 | 1.35 | 1.68 | 1.73 | 1.4
